# ± gives the standard deviation of the averaged measurements. This is one part of the list. The list holds hits alone, and they repeat only in part.
# The chains behind the UniProt entries cited, without tags or fusion partners.
# AP2A2, O94973, UniProt O94973, whole entry: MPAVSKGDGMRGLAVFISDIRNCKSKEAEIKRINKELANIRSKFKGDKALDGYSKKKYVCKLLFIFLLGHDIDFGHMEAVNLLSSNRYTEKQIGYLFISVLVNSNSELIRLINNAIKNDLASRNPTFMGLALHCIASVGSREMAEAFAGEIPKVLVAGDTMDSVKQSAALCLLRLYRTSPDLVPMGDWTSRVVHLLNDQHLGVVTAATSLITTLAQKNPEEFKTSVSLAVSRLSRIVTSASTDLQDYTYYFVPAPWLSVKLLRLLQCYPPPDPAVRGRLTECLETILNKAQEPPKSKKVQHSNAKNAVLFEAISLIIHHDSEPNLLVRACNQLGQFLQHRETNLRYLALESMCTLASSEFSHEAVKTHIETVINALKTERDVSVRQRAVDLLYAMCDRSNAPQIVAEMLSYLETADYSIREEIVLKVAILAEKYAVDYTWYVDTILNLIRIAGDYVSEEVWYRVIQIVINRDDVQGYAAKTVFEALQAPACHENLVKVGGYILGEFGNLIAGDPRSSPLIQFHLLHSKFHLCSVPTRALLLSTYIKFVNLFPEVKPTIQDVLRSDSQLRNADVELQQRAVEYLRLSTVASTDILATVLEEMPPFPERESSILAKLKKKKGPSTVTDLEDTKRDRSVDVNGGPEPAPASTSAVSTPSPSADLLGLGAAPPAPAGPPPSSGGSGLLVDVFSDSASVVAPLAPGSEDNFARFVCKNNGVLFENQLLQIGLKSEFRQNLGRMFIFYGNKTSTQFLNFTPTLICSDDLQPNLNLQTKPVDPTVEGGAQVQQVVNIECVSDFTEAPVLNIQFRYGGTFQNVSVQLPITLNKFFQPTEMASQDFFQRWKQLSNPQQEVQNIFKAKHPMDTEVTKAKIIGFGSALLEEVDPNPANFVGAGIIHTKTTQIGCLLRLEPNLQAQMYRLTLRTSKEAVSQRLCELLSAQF
# HNRNPU, Q00839, UniProt Q00839, whole entry: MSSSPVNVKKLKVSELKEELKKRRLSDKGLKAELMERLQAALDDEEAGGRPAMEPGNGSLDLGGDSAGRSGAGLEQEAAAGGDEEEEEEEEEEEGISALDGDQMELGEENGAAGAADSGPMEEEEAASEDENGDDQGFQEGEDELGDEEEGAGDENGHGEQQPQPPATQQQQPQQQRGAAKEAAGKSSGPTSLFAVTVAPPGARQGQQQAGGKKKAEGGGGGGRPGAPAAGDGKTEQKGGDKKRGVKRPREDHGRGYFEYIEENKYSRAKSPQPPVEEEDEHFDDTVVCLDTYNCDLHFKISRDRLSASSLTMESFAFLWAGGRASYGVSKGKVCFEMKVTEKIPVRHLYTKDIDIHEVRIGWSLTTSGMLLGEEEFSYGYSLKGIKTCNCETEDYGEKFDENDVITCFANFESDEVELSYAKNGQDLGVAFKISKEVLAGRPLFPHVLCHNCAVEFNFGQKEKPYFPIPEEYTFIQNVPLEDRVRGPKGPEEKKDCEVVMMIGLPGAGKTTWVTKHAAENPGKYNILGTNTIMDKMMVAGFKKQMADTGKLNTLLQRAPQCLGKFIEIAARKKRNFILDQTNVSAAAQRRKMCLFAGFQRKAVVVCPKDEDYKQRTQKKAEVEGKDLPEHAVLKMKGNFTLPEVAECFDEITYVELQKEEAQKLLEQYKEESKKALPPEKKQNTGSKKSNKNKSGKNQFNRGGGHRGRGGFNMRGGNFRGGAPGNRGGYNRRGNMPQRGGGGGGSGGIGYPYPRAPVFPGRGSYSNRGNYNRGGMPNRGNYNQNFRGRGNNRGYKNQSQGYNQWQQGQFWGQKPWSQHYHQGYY
# KHDRBS1, Q07666, UniProt Q07666, whole entry: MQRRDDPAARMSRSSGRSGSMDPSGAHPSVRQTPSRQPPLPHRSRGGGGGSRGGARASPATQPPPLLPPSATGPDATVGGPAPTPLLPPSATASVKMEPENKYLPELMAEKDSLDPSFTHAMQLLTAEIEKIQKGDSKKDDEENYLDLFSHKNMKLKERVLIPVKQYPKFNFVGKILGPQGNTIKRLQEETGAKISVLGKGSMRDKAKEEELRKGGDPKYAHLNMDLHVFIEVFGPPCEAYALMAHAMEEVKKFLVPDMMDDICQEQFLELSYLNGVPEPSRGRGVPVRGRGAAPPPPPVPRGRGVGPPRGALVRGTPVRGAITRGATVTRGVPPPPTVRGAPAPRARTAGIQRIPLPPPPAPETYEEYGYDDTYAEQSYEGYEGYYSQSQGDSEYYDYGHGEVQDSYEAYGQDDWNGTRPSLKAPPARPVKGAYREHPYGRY
# B1: INSIG2 (peptide)
# chain: MAEAGDFW
# Tests used:
# Test in all cases: PRISMA enrichment of interactor (LFQ) in peptide spot vs all other peptide spots (log2 fold change); higher = stronger / more specific binding of the interactor to the peptide
# ALKBH2, Q6NS38 = molecular target: ALKBH2, Q6NS38
# Method: (§1)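 PRISMA: 221 full-length sORF-encoded peptides (3-15 aa), plus SOS1/GLUT1 control peptides, were spot-synthesized on cellulose membranes in triplicate. Membranes were incubated with HEK293T lysate, and bound proteins were identified by LC-MS/MS with LFQ. Enrichment is the log2 fold change versus all other peptide spots; only significant interactors are listed (cutoff c=6, x0=2.8).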
# ALYREF, Q86V81 = molecular target: ALYREF, Q86V81
# Method: as §1
# AMMECR1, Q9Y4X0 = molecular target: AMMECR1, Q9Y4X0
# Method: as §1
# AMMECR1L, Q6DCA0 = molecular target: AMMECR1L, Q6DCA0
# Method: as §1
# AP1B1, Q10567 = molecular target: AP1B1, Q10567
# Method: as §1
# AP2A1, O95782 = molecular target: AP2A1, O95782
# Method: as §1
# AP2A2, O94973 = molecular target: AP2A2, O94973
# Method: as §1
# AP2B1, P63010 = molecular target: AP2B1, P63010
# Method: as §1
# AP2M1, Q96CW1 = molecular target: AP2M1, Q96CW1
# Method: as §1
# AP2S1, P53680 = molecular target: AP2S1, P53680
# Method: as §1
# BCKDK, O14874 = molecular target: BCKDK, O14874
# Method: as §1
# C12orf65, Q9H3J6 = molecular target: C12orf65, Q9H3J6
# Method: as §1
# C19orf53, Q9UNZ5 = molecular target: C19orf53, Q9UNZ5
# Method: as §1
# C8orf33, Q9H7E9 = molecular target: C8orf33, Q9H7E9
# Method: as §1
# CC2D1A, Q6P1N0 = molecular target: CC2D1A, Q6P1N0
# Method: as §1
# CCDC137, Q6PK04 = molecular target: CCDC137, Q6PK04
# Method: as §1
# CCDC59, Q9P031 = molecular target: CCDC59, Q9P031
# Method: as §1
# CCNL1, Q9UK58 = molecular target: CCNL1, Q9UK58
# Method: as §1
# CHTOP, Q9Y3Y2 = molecular target: CHTOP, Q9Y3Y2
# Method: as §1
# CSNK1A1, P48729 = molecular target: CSNK1A1, P48729
# Method: as §1
# CSNK1E, P49674 = molecular target: CSNK1E, P49674
# Method: as §1
# CSRP2, Q16527 = molecular target: CSRP2, Q16527
# Method: as §1
# CXorf56, Q9H5V9 = molecular target: CXorf56, Q9H5V9
# Method: as §1
# DDX18, Q9NVP1 = molecular target: DDX18, Q9NVP1
# Method: as §1
# DDX47, Q9H0S4 = molecular target: DDX47, Q9H0S4
# Method: as §1
# DDX49, Q9Y6V7 = molecular target: DDX49, Q9Y6V7
# Method: as §1
# DECR2, Q9NUI1 = molecular target: DECR2, Q9NUI1
# Method: as §1
# DERPC, P0CG12 = molecular target: DERPC, P0CG12
# Method: as §1
# EEFSEC, P57772 = molecular target: EEFSEC, P57772
# Method: as §1
# EGLN1, Q9GZT9 = molecular target: EGLN1, Q9GZT9
# Method: as §1
# EHHADH, Q08426 = molecular target: EHHADH, Q08426
# Method: as §1
# EMG1, Q92979 = molecular target: EMG1, Q92979
# Method: as §1
# EWSR1, Q01844 = molecular target: EWSR1, Q01844
# Method: as §1
# FBL, P22087 = molecular target: FBL, P22087
# Method: as §1
# FTSJ3, Q8IY81 = molecular target: FTSJ3, Q8IY81
# Method: as §1
# FUS, P35637 = molecular target: FUS, P35637
# Method: as §1
# GABARAPL2, P60520 = molecular target: GABARAPL2, P60520
# Method: as §1
# GAR1, Q9NY12 = molecular target: GAR1, Q9NY12
# Method: as §1
# GSK3B, P49841 = molecular target: GSK3B, P49841
# Method: as §1
# GTPBP1, O00178 = molecular target: GTPBP1, O00178
# Method: as §1
# H1FX, Q92522 = molecular target: H1FX, Q92522
# Method: as §1
# HMGB2, P26583 = molecular target: HMGB2, P26583
# Method: as §1
# HNRNPU, Q00839 = molecular target: HNRNPU, Q00839
# Method: as §1
# HP1BP3, Q5SSJ5 = molecular target: HP1BP3, Q5SSJ5
# Method: as §1
# IBA57, Q5T440 = molecular target: IBA57, Q5T440
# Method: as §1
# ISG20L2, Q9H9L3 = molecular target: ISG20L2, Q9H9L3
# Method: as §1
# KHDRBS1, Q07666 = molecular target: KHDRBS1, Q07666
# Method: as §1
# KIF4A, O95239 = molecular target: KIF4A, O95239
# Method: as §1
# KIFC1, Q9BW19 = molecular target: KIFC1, Q9BW19
# Method: as §1
# MAP4, P27816 = molecular target: MAP4, P27816
# Method: as §1
binder,measurement,setting,value
B1,PRISMA enrichment of interactor (log2),"ALKBH2, Q6NS38",4.97
same,PRISMA enrichment of interactor (log2),"ALYREF, Q86V81",6.01 ± 0.77
same,PRISMA enrichment of interactor (log2),"AMMECR1, Q9Y4X0",4.67
same,PRISMA enrichment of interactor (log2),"AMMECR1L, Q6DCA0",5.23
same,PRISMA enrichment of interactor (log2),"AP1B1, Q10567",4.11
same,PRISMA enrichment of interactor (log2),"AP2A1, O95782",8.35
same,PRISMA enrichment of interactor (log2),"AP2A2, O94973",7.43
same,PRISMA enrichment of interactor (log2),"AP2B1, P63010",7.7
same,PRISMA enrichment of interactor (log2),"AP2M1, Q96CW1",7.35
same,PRISMA enrichment of interactor (log2),"AP2S1, P53680",5.49
same,PRISMA enrichment of interactor (log2),"BCKDK, O14874",7.62
same,PRISMA enrichment of interactor (log2),"C12orf65, Q9H3J6",5.03
same,PRISMA enrichment of interactor (log2),"C19orf53, Q9UNZ5",8.3
same,PRISMA enrichment of interactor (log2),"C8orf33, Q9H7E9",4.95
same,PRISMA enrichment of interactor (log2),"CC2D1A, Q6P1N0",8.34
same,PRISMA enrichment of interactor (log2),"CCDC137, Q6PK04",8.12
same,PRISMA enrichment of interactor (log2),"CCDC59, Q9P031",6.06
same,PRISMA enrichment of interactor (log2),"CCNL1, Q9UK58",4.47
same,PRISMA enrichment of interactor (log2),"CHTOP, Q9Y3Y2",6.61
same,PRISMA enrichment of interactor (log2),"CSNK1A1, P48729",8.79
same,PRISMA enrichment of interactor (log2),"CSNK1E, P49674",8.29
same,PRISMA enrichment of interactor (log2),"CSRP2, Q16527",5.53
same,PRISMA enrichment of interactor (log2),"CXorf56, Q9H5V9",6.71
same,PRISMA enrichment of interactor (log2),"DDX18, Q9NVP1",5.42
same,PRISMA enrichment of interactor (log2),"DDX47, Q9H0S4",5.31
same,PRISMA enrichment of interactor (log2),"DDX49, Q9Y6V7",5.33
same,PRISMA enrichment of interactor (log2),"DECR2, Q9NUI1",6.81
same,PRISMA enrichment of interactor (log2),"DERPC, P0CG12",5.93
same,PRISMA enrichment of interactor (log2),"EEFSEC, P57772",5.61
same,PRISMA enrichment of interactor (log2),"EGLN1, Q9GZT9",3.97
same,PRISMA enrichment of interactor (log2),"EHHADH, Q08426",7.65
same,PRISMA enrichment of interactor (log2),"EMG1, Q92979",7.9
same,PRISMA enrichment of interactor (log2),"EWSR1, Q01844",5.88
same,PRISMA enrichment of interactor (log2),"FBL, P22087",6.53
same,PRISMA enrichment of interactor (log2),"FTSJ3, Q8IY81",5.04
same,PRISMA enrichment of interactor (log2),"FUS, P35637",5.87
same,PRISMA enrichment of interactor (log2),"GABARAPL2, P60520",5.02
same,PRISMA enrichment of interactor (log2),"GAR1, Q9NY12",5.78
same,PRISMA enrichment of interactor (log2),"GSK3B, P49841",5.45
same,PRISMA enrichment of interactor (log2),"GTPBP1, O00178",5.68
same,PRISMA enrichment of interactor (log2),"H1FX, Q92522",5.24
same,PRISMA enrichment of interactor (log2),"HMGB2, P26583",4.51
same,PRISMA enrichment of interactor (log2),"HNRNPU, Q00839",5.05
same,PRISMA enrichment of interactor (log2),"HP1BP3, Q5SSJ5",6.06
same,PRISMA enrichment of interactor (log2),"IBA57, Q5T440",6.77
same,PRISMA enrichment of interactor (log2),"ISG20L2, Q9H9L3",5.3
same,PRISMA enrichment of interactor (log2),"KHDRBS1, Q07666",6.5
same,PRISMA enrichment of interactor (log2),"KIF4A, O95239",5.22
same,PRISMA enrichment of interactor (log2),"KIFC1, Q9BW19",6.03
same,PRISMA enrichment of interactor (log2),"MAP4, P27816",6.38

# Some of the entries so far, as tab-separated lines:
binder	measurement	setting	value
B1	PRISMA enrichment of interactor (log2)	EGLN1, Q9GZT9	3.97
same	PRISMA enrichment of interactor (log2)	EHHADH, Q08426	7.65
same	PRISMA enrichment of interactor (log2)	EMG1, Q92979	7.9
